# Assay results taken from PubChem BioAssay AID2551 (National Center for Advancing Translational Sciences (NCATS), 2010).
# Protein sequences, listed by entry. Tags and fused reporters are not part of them. Lines headed by an entry give the natural chain unless they say otherwise; changes in a name come on top.
# UniProt P51450: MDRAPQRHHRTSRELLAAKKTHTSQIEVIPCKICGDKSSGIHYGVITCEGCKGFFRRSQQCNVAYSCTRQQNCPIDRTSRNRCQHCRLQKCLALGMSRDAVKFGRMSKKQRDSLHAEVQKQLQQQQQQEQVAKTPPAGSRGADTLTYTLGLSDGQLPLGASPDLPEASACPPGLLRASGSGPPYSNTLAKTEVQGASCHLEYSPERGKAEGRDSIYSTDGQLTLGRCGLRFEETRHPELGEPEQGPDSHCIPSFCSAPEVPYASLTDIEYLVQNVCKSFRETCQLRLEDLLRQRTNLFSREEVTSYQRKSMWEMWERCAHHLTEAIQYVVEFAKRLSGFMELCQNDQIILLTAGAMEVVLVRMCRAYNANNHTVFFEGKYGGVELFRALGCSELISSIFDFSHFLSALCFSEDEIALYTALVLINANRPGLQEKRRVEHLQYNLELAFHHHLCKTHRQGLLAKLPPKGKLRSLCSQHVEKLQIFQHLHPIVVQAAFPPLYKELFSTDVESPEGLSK
# Out of some 310,000 compounds screened, about 17,000 (5.5%) were called active. The inconclusive results got no clear call from the source; some entries with a clear call stand among them for comparison. Calls come from the whole dose curve; as a rule, active = well fitted inhibition curve with a large enough effect; inconclusive = small, poorly fitted or top-dose-only effect, or effect the other way; inactive = no such curve, though single readings can be large or run the other way. A potency beside an inconclusive call is a rough fit, not a confirmed value.
# Target: Nuclear receptor ROR-gamma (Mus musculus) (UniProt P51450)
# Assay: qHTS for inhibitors of ROR gamma transcriptional activity; note: nearly all actives have a fitted effect of over 60% in size
# Settings: Drosophila S2 Gal4-RORgamma UAS-luciferase reporter, 20 h; activity change, negative = inhibition: at 53.6 µM (top of the series)
# How it was run: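 Luciferase reporter read in Schneider cells carrying Gal4-RORγ (mouse) and UAS-Photinus luciferase; cells given compound 1 h before 700 uM copper sulfate induction, then incubated 20 h at ambient temperature.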
# % is set by controls: 0 for no effect and ±100 for the full control effect; potency is the fitted concentration of half-maximal effect.
SMILES,"activity change, negative = inhibition",Potency
CC(C)=CCC/C(C)=C/Cc1c(O)ccc(C(=O)/C=C/c2ccc(O)cc2)c1O,inactive: -0.922%,
Cc1cc(N=Cc2c(O)n(-c3ccc4c(c3)OCO4)c(=O)c3ccccc23)ccn1,,"inconclusive: 28.2 µM [inhibitor, single point]"
CCOc1cc(CNC2CCCC2)ccc1OCc1ccccc1Cl,inactive: -14.1%,
COC(C/C=C/C(=O)COCc1ccccc1)OC,,"inconclusive: 35.5 µM [inhibitor, single point]"
Fc1cccc(-c2oncc2-c2nnnn2-c2ccc(Cl)cc2)c1,,"inconclusive: 11.2 µM [inhibitor, partial curve, poor fit]"
COc1ccc(CC(=O)c2ccc(OC3OC(CO)C(O)C(O)C3O)cc2O)cc1 (stereo not given),inactive: 0.837%,
CCOC(=O)/C(=C\c1ccc(OC(F)F)cc1)C1=Nn2c(nnc2-c2ccc(Cl)cc2)SC1,,active: 6.31 µM
NCC1OC(n2cnc3c(=O)[nH]c(N)nc32)C(O)C1O (stereo not given),inactive: 0.442%,
O=C(N/N=C1/C[C@@H](O)[C@@H](O)[C@@H]2[C@H]3C(=O)N(c4ccc(F)cc4F)C(=O)[C@@H]3CC[C@H]12)OCc1ccccc1,inactive: -0.0396% [at 10 µM],
CCC(O)C1CCN(Cc2cn(Cc3ccccc3)nc2-c2cc3ccccc3o2)CC1 (stereo not given),,"inconclusive: 22.4 µM [inhibitor, single point]"
O=C1Nc2ccccc2/C1=C/c1ccnc2ccccc12,inactive: -13.4%,
Fc1ccc(NCc2n[nH]c(=S)n2Cc2ccccc2)cc1,,active: 4.47 µM
NC(=O)c1ccsc1NC(=O)c1ccc(S(=O)(=O)N2CCCc3ccccc32)cc1,,"inconclusive: 10 µM [activator, partial curve, poor fit]"
CC1=NN(C(C#N)c2ccc(F)cc2)C(c2ccccc2)C1 (stereo not given),,"inconclusive: 0.0447 µM [inhibitor, full curve, poor fit]"
NS(=O)(=O)c1ccc(CNC(=O)c2cc(=O)[nH]c3ccccc23)cc1,inactive: -0.879%,
Cc1ccc2c(Cl)c(C)c(N3CCCC3)nc2n1,,active: 2.82 µM
CC1CN(C(=S)NC(=O)C2CCCCC2)CC(C)O1 (stereo not given),,"inconclusive: 7.94 µM [inhibitor, partial curve, poor fit]"
C=CC(C1=CC(=O)C(OC)=CC1=O)c1ccccc1 (stereo not given),,"inconclusive: 15.8 µM [inhibitor, single point]"
Cc1ccc(Cc2nc(-c3ccncc3)no2)cc1,,"inconclusive: 11.2 µM [activator, partial curve, poor fit]"
Cc1cc(C)cc(S(=O)(=O)c2cnc3ccccc3n2)c1,,"inconclusive: 14.1 µM [inhibitor, single point]"

# Record cards, as listed above.
# Cc1ccc2c(Cl)c(C)c(N3CCCC3)nc2n1 reads Potency: active: 2.82 µM
# COC(C/C=C/C(=O)COCc1ccccc1)OC reads Potency: inconclusive: 35.5 µM [inhibitor, single point]
